Reference: PMC4909252, “High-resolution NMR structures of the domains of Saccharomyces cerevisiae Tho1”
A negative result means that nothing was seen under these conditions. At least one verdict rests on a figure or table, not on a statement of the authors. Protein sequences can lack the tags named with them.

The sequences below were run against T1, Tho1 C-terminal domain (Saccharomyces cerevisiae) (UniProt P40040) (assay: NMR (15N HSQC)). Details: 200 uM protein, 200 uM oligo, 200 uM protein and oligo, typical NMR buffer 20 mM potassium phosphate pH 6.5, 100 mM NaCl, 5 mM beta-mercaptoethanol, 10% D2O, 25 C, recombinant protein, residues 119-183, protein details: His6-lipoyl fusion removed by TEV, 15N-labelled.
T1 sequence (looked up): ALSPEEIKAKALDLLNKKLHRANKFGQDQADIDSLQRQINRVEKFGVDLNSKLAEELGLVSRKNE

Binding result, no binding:
AAAAAAAAAAAAAAAAAA [18-mer polyA], CUUGUACAUAGUUGGCCAUA [20-mer ssRNA], GGACAGCUGUCCCUUCGGGGACAGCUGUCC [30-mer dsRNA], UUUUUUUUUUUUUUUUUU [18-mer polyU]
